According to patent US9546175B2, “Organic compounds” (Intra-Cellular Therapies, Inc., priority 2014, dated 2017):
Some of these results come from one statement about several compounds together.

Assay: Pharmacokinetic analysis in mice, plasma and brain levels by LC-MS/MS
Assay type: in vivo
Settings: male C57BL/6 mice, 10 mg/kg oral (PO), plasma levels 0.25-2 h
Method: Animals: Male, C57BL/6 mice (Jackson Labs, 25-30 g in body weight) are provided by Jackson Laboratories. Up to five mice are housed per cage and are maintained under a 12 hour light/dark cycle with access to food and water ad libitum. All procedures for the handling and use of animals follow the guidelines of the Institutional Animal Care and Use Committee (IACUC) of Columbia University, in accordance with NIH guidelines. Eight week-old mice (N=3/dose level or treatment group) are used in the experiments.
Experimental Treatment: Compounds: Selected Compounds of the Invention are evaluated in the present study. […]
Compound Preparation: Powdered stocks of the test compound(s) are measured and dissolved in 3% 1N HCl, 5% Labrasol and 92% of 5% TPGS in 0.05M Citrate buffer (CB, pH 4.0). […]
Treatment of Animals: Mice (N=3 mice/dose/time point) receive a 10 mg/kg oral (PO) dose of the test compound(s) at time 0. […] Plasma and brain tissue samples are processed and analyzed by the analytical group using LC-MS/MS methods, as described below. […]
Each tube is vortexed, then centrifuged for 20 min at 15000 rpm using a Tomy benchtop centrifuge at 4° C., Standard is an internal standard used for LC-MS/MS quantitation. […]
Each compound is detected and quantified using Multiple Reaction Monitoring (MRM) of positive electrospray mode with a Waters QuattroMicro™ mass spectrometry system. […]

Structure (SMILES)	oral bioavailability
CC(C)Cn1c(=O)n(C)c(=O)c2c(Nc3ccccc3)n(Cc3ccc(C(=O)O)cc3)nc21 [Example 2, 4-((7-isobutyl-5-methyl-4,6-dioxo-3-(phenylamino)-4,5,6,7-tetrahydropyrazolo[3,4-d]pyrimidin-2-yl)methyl)benzoic acid]	display oral bioavailability
CC(C)Cn1c(=O)n(C)c(=O)c2c(Nc3ccccc3)n(Cc3ccc(S(N)(=O)=O)cc3)nc21 [Example 1, 4-((7-Isobutyl-5-methyl-4,6-dioxo-3-(phenylamino)-4,5,6,7-tetrahydropyrazolo[3,4-d]pyrimidin-2-yl)methyl)benzenesulfonamide]	display oral bioavailability
